{
  "source": "patent US9592231B2",
  "about": "“Therapy for complications of diabetes” (AbbVie Deutschland GmbH & Co. KG, priority 2007, dated 2017)",
  "origin": "cited, not measured here",
  "system": "mouse model of non-obese type 1 diabetes",
  "settings": "cited from earlier work",
  "note": "At least one compound was matched to its structure with a doubt left.",
  "data": [
    {"molecule": "COC(c1ccccc1)(c1ccccc1)[C@H](Oc1nc(C)cc(C)n1)C(=O)O", "note": "[LU 208075, ambrisentan]", "values": [
      {"measurement": "elevated plasma glucose levels", "value": "did not reduce"}
    ]}
  ]
}
